# Literature values in patent US6740634B1, “Sustained release compositions, process for producing the same and utilization thereof” (Takeda Chemical Industries, Ltd., priority 1998, dated 2004).
# Some entries share one result that the patent states for a list of compounds.
# Conditions: literature value (Kagaku Binran Kisohen II for 3-hydroxy-2-naphthoic acid); cited from earlier work
row,SMILES,pKa
1,O=C(O)c1cccc(O)c1 [m-hydroxybenzoic acid],not less than 4
2,O=C(O)c1ccc(O)cc1 [p-hydroxybenzoic acid],not less than 4
